Drawing on article PMC3999954, this text covers binding for four molecules.

Results are given in words; binding and its absence hold for the method and conditions named. Binding calls can cover weak binding; strength is not graded here.

The labels stand for the following.
B1: At.eIFiso4E (protein, UniProt O04663-1 1-198)
chain: MATDDVNEPLPAAAELPATEAEKQPHKLERKWSFWFDNQSKKGAAWGASLRKAYTFDTVEDFWGLHETIFQTSKLTANAEIHLFKAGVEPKWEDPECANGGKWTWVVTANRKEALDKGWLETLMALIGEQFDEADEICGVVASVRPQSKQDKLSLWTRTKSNEAVLMGIGKKWKEILDVTDKITFNNHDDSRRSRFTV
B2: Ca.eIF4E1-pvr2^+ (protein, UniProt A0A1U8GR65 1-228)
chain: MATAEMEKTTTFDEAEKVKLNANEADDEVEEGEIVEETDDTTSYLSKEIATKHPLEHSWTFWFDNPVAKSKQAAWGSSLRNVYTFSTVEDFWGAYNNIHHPSKLVVGADLHCFKHKIEPKWEDPVCANGGTWKMSFSKGKSDTSWLYTLLAMIGHQFDHEDEICGAVVSVRGKGEKISLWTKNAANETAQVSIGKQWKQFLDYSDSVGFIFHDDAKRLDRNAKNRYTV
B3: Ca.eIFiso4E (protein, UniProt A0A1U8F5V2 1-202)
chain: MATEAPPPVDTTEVPPFTAAETAVKQPHKLERKWTFWFDNQSKPKQGAAWGSSLKKAYTFDTVEEFWSLYDQIFKPSKLTVNADFHLFKAGIEPKWEDPECANGGKWTVTSSRKANLETMWLETLMALVGEQFDDSEDICGVVASVRRSQDKLSLWTKTATNEAAQMGIGRKWKEIIDTEKISYSFHDDSKRERSAKSRYTV
B4: At.eIF4E1 (protein, UniProt O23252 1-235)
chain: MAVEDTPKSVVTEEAKPNSIENPIDRYHEEGDDAEEGEIAGGEGDGNVDESSKSGVPESHPLEHSWTFWFDNPAVKSKQTSWGSSLRPVFTFSTVEEFWSLYNNMKHPSKLAHGADFYCFKHIIEPKWEDPICANGGKWTMTFPKEKSDKSWLYTLLALIGEQFDHGDEICGAVVNIRGKQERISIWTKNASNEAAQVSIGKQWKEFLDYNNSIGFIIHEDAKKLDRNAKNAYTA

In this test the target is TEV HAT VPg (Tobacco etch virus (strain HAT)). In words: two-hybrid; Matchmaker 3 yeast two-hybrid system (Clontech); TEV HAT VPg fused to the GAL4 binding domain (bait), eIF4E1 and eIFiso4E proteins fused to the activation domain (prey); growth on SD-LWH against SD-LW control; each combination in triplicate; empty vector controls for self-activation.
Consider B1, for which the binding entry is “no binding”.

Consider B2, for which the binding result is listed as “binds”.

Regarding B3, the binding result was “no binding”.

Turning to B4, the binding entry was “no binding”.
